# At least one peptide structure holds a part that was inferred or is arguable (an end, a ring closure or a residue). Where a SMILES comes first, the peptide text is derived from it.
# Legend:
# [1] = tested on: LPS-induced TNF-α release; test: Ex vivo stimulation of human peripheral blood mononuclear cells (PBMCs) with LPS, TNF-α ELISA of supernatants; format: cell-based
# TNF-α = test: Whole blood from uremic patients stimulated ex vivo with LPS, incl. heat sterilization of peptides, TNF-α ELISA; format: cell-based, human; settings: whole blood of uremic patients (n=10), 1:10 diluted, LPS 1 ng/ml, 24 h; average over the tested concentrations (0.1-1000 µM)
# IL-6 = test: Whole blood from uremic patients stimulated ex vivo with LPS, incl. heat sterilization of peptides, IL-6 ELISA; format: cell-based, human; settings: whole blood of uremic patients (n=10), 1:10 diluted, LPS 1 ng/ml, 24 h; average over the tested concentrations (0.1-1000 µM)
# [2] = LPS 1 ng/ml + peptide simultaneously, 24h, no pre-incubation, peptide 1 µM
# [3] = LPS 1 ng/ml + peptide simultaneously, 24h, no pre-incubation, peptide 10 µM
# [4] = LPS 1 ng/ml + peptide simultaneously, 24h, no pre-incubation, peptide 100 µM
# [5] = LPS 1 ng/ml + peptide simultaneously, 24h, no pre-incubation, peptide 1000 µM
# [6] = LPS 3 h pre-incubation, then LPS 1 ng/ml + peptide 24h, peptide 1 µM
# [7] = LPS 3 h pre-incubation, then LPS 1 ng/ml + peptide 24h, peptide 10 µM
# [8] = LPS 3 h pre-incubation, then LPS 1 ng/ml + peptide 24h, peptide 100 µM
# [9] = LPS 3 h pre-incubation, then LPS 1 ng/ml + peptide 24h, peptide 1000 µM
structure (smiles),measurement,setting,value
CC(C)[C@H](NC(=O)[C@@H]1CCCN1C(=O)[C@@H](N)CCCCN)C(=O)O [KPV] (H-Lys-Pro-Val-OH),TNF-a Donor 2,[1]; [2],3426
same,TNF-a Donor 3,[1]; [2],3955
same,TNF-a Donor 4,[1]; [2],3702
same,TNF-a Donor 5,[1]; [2],1893
same,TNF-a Donor 6,[1]; [2],3541
same,TNF-a %,"[1]; LPS 1 ng/ml + peptide simultaneously, 24h, no pre-incubation, peptide 1 µM, % of LPS-alone control C (100.00)",78.64%
same,TNF-a MV+SD,"[1]; LPS 1 ng/ml + peptide simultaneously, 24h, no pre-incubation, peptide 1 µM, mean of donors",3303.4
same,TNF-a Donor 2,[1]; [3],3154
same,TNF-a Donor 3,[1]; [3],3907
same,TNF-a Donor 4,[1]; [3],3369
same,TNF-a Donor 5,[1]; [3],1706
same,TNF-a Donor 6,[1]; [3],3470
same,TNF-a %,"[1]; LPS 1 ng/ml + peptide simultaneously, 24h, no pre-incubation, peptide 10 µM, % of LPS-alone control C (100.00)",74.30%
same,TNF-a MV+SD,"[1]; LPS 1 ng/ml + peptide simultaneously, 24h, no pre-incubation, peptide 10 µM, mean of donors",3121.2
same,TNF-a Donor 2,[1]; [4],2562
same,TNF-a Donor 3,[1]; [4],3505
same,TNF-a Donor 4,[1]; [4],3077
same,TNF-a Donor 5,[1]; [4],1525
same,TNF-a Donor 6,[1]; [4],3142
same,TNF-a %,"[1]; LPS 1 ng/ml + peptide simultaneously, 24h, no pre-incubation, peptide 100 µM, % of LPS-alone control C (100.00)",65.76%
same,TNF-a MV+SD,"[1]; LPS 1 ng/ml + peptide simultaneously, 24h, no pre-incubation, peptide 100 µM, mean of donors",2762.2
same,TNF-a Donor 3,[1]; [5],931
same,TNF-a Donor 4,[1]; [5],934
same,TNF-a Donor 5,[1]; [5],594
same,TNF-a Donor 6,[1]; [5],1801
same,TNF-a %,"[1]; LPS 1 ng/ml + peptide simultaneously, 24h, no pre-incubation, peptide 1000 µM, % of LPS-alone control C (100.00)",25.35%
same,TNF-a MV+SD,"[1]; LPS 1 ng/ml + peptide simultaneously, 24h, no pre-incubation, peptide 1000 µM, mean of donors (Donor 2 not done)",1065
same,TNF-a Donor 2,[1]; [6],4025
same,TNF-a Donor 3,[1]; [6],4554
same,TNF-a Donor 4,[1]; [6],3541
same,TNF-a Donor 5,[1]; [6],2301
same,TNF-a Donor 6,[1]; [6],4299
same,TNF-a %,"[1]; LPS 3 h pre-incubation, then LPS 1 ng/ml + peptide 24h, peptide 1 µM, % of LPS-alone control c (100.00)",85.28%
same,TNF-a MV+SD,"[1]; LPS 3 h pre-incubation, then LPS 1 ng/ml + peptide 24h, peptide 1 µM, mean of donors",3744
same,TNF-a Donor 2,[1]; [7],4126
same,TNF-a Donor 3,[1]; [7],4387
same,TNF-a Donor 4,[1]; [7],3666
same,TNF-a Donor 5,[1]; [7],2209
same,TNF-a Donor 6,[1]; [7],3949
same,TNF-a %,"[1]; LPS 3 h pre-incubation, then LPS 1 ng/ml + peptide 24h, peptide 10 µM, % of LPS-alone control c (100.00)",83.53%
same,TNF-a MV+SD,"[1]; LPS 3 h pre-incubation, then LPS 1 ng/ml + peptide 24h, peptide 10 µM, mean of donors",3667.4
same,TNF-a Donor 2,[1]; [8],3542
same,TNF-a Donor 3,[1]; [8],5022
same,TNF-a Donor 4,[1]; [8],2886
same,TNF-a Donor 5,[1]; [8],1931
same,TNF-a Donor 6,[1]; [8],3731
same,TNF-a %,"[1]; LPS 3 h pre-incubation, then LPS 1 ng/ml + peptide 24h, peptide 100 µM, % of LPS-alone control c (100.00)",73.40%
same,TNF-a MV+SD,"[1]; LPS 3 h pre-incubation, then LPS 1 ng/ml + peptide 24h, peptide 100 µM, mean of donors",3222.4
same,TNF-a Donor 3,[1]; [9],1816
same,TNF-a Donor 4,[1]; [9],1494
same,TNF-a Donor 5,[1]; [9],1054
same,TNF-a Donor 6,[1]; [9],2482
same,TNF-a %,"[1]; LPS 3 h pre-incubation, then LPS 1 ng/ml + peptide 24h, peptide 1000 µM, % of LPS-alone control c (100.00)",38.98%
same,TNF-a MV+SD,"[1]; LPS 3 h pre-incubation, then LPS 1 ng/ml + peptide 24h, peptide 1000 µM, mean of donors (Donor 2 not done)",1711.5
same,"effect for LPS-induced TNF-α release (""inflammation"")",[1]; both pre-stimulation with LPS and co-incubation of peptides and LPS,inhibitory effect
same,average inhibition for TNF-α,TNF-α,around 30%
same,average inhibition for IL-6,IL-6,around 20%

# Source: EP2508199B1, “Melanocyte-stimulation hormone for suppressing inflammation reactions in hemodialysis” (Fresenius Medical Care Deutschland GmbH, priority 2011, dated 2014)
